Data: the supplement of paper PMC12819154, “High-throughput peptide-centric local stability assay extends protein–ligand identification to membrane proteins, tissues and bacteria” (Nature Structural & Molecular Biology, 2025)
Some of the results follow. Most values lie at the level of the controls, where differences are scatter.

Amino acid sequences for entries named in this document (tags omitted). A change or cut given only in a name is not applied to a line headed by its entry.
UniProt Q9HD47: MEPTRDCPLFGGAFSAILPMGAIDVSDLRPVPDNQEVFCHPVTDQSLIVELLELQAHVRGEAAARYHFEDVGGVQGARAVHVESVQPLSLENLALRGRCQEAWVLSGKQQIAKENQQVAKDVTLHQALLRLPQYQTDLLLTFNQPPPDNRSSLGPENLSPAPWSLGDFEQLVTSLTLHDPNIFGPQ
UniProt Q9NVK5: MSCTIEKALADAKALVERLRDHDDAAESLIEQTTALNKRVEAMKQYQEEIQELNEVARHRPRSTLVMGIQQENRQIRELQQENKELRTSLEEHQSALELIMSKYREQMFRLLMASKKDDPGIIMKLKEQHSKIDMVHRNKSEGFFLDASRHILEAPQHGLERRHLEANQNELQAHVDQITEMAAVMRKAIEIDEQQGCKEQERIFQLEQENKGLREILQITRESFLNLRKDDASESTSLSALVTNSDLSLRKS
UniProt Q9NTZ6: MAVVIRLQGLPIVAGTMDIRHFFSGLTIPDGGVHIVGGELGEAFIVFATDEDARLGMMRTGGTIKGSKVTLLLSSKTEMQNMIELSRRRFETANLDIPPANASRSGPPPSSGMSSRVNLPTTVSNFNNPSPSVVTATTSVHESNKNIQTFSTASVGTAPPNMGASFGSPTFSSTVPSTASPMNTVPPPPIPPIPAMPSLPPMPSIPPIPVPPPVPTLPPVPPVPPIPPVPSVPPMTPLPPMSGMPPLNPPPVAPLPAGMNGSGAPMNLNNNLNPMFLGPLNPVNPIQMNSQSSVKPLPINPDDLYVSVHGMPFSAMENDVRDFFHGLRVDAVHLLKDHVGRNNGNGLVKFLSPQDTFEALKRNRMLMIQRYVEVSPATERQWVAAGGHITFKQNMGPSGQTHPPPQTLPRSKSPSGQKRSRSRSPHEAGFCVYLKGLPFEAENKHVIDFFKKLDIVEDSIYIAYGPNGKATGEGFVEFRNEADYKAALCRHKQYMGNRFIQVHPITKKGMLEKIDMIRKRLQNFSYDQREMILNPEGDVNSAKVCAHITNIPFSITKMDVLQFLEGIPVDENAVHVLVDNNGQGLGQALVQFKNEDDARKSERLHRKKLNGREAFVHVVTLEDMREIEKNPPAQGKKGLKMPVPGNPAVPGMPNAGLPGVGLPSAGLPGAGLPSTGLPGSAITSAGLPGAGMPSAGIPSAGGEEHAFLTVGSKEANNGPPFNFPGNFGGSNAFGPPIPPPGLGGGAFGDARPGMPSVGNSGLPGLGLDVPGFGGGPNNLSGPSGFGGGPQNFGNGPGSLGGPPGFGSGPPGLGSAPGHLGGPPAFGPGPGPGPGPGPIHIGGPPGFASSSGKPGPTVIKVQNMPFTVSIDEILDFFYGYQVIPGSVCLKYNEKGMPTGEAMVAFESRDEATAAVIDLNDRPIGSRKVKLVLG
UniProt Q9NQR1: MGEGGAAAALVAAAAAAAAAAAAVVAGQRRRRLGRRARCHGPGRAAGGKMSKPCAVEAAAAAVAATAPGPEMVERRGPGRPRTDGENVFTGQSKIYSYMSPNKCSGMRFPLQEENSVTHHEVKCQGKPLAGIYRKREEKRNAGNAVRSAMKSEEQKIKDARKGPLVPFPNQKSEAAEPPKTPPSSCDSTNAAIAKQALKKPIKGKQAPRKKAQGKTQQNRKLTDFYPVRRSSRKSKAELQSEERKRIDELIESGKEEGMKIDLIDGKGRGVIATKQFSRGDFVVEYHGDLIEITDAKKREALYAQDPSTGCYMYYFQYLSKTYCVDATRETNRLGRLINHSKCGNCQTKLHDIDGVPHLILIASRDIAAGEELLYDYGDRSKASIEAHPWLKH
UniProt Q9NPI6: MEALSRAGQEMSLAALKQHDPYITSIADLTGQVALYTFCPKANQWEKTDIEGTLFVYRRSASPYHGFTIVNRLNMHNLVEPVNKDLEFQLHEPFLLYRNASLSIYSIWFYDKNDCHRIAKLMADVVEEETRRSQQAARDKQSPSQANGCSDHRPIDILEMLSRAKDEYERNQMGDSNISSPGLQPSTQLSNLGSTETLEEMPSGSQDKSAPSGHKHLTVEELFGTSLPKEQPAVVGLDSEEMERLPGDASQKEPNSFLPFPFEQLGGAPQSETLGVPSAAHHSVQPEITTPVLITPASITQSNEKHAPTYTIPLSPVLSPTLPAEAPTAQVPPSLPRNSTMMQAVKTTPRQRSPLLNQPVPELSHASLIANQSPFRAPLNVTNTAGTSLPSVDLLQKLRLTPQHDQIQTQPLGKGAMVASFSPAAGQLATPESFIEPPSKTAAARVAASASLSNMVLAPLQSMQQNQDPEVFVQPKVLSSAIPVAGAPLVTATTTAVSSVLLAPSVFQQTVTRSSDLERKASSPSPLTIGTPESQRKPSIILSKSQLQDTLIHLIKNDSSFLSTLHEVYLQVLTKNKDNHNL
UniProt Q9HD42: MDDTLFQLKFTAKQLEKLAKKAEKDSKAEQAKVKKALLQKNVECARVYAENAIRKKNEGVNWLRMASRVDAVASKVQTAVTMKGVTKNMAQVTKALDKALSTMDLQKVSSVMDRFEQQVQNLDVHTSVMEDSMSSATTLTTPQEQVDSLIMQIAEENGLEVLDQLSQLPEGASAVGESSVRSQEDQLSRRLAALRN
UniProt Q9HCM4: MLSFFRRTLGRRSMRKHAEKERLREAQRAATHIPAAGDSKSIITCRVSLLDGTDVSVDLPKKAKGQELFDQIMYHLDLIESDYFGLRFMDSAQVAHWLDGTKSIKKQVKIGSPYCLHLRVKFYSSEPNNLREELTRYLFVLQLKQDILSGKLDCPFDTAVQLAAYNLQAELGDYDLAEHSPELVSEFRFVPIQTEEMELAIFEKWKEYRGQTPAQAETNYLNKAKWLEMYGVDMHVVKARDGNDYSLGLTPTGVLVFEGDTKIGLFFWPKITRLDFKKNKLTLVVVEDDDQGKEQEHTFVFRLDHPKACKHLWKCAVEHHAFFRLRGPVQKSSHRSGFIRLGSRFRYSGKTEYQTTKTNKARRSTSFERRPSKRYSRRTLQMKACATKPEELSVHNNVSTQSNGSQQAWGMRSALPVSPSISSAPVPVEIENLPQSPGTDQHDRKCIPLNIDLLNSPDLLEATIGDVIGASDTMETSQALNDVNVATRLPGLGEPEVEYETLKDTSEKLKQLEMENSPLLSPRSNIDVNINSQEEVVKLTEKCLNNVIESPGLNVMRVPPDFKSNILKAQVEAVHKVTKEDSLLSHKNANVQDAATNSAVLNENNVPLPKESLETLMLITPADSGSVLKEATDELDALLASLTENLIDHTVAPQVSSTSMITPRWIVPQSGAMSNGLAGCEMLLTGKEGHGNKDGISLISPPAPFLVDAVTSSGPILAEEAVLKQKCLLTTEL
UniProt Q9HD67, whole entry: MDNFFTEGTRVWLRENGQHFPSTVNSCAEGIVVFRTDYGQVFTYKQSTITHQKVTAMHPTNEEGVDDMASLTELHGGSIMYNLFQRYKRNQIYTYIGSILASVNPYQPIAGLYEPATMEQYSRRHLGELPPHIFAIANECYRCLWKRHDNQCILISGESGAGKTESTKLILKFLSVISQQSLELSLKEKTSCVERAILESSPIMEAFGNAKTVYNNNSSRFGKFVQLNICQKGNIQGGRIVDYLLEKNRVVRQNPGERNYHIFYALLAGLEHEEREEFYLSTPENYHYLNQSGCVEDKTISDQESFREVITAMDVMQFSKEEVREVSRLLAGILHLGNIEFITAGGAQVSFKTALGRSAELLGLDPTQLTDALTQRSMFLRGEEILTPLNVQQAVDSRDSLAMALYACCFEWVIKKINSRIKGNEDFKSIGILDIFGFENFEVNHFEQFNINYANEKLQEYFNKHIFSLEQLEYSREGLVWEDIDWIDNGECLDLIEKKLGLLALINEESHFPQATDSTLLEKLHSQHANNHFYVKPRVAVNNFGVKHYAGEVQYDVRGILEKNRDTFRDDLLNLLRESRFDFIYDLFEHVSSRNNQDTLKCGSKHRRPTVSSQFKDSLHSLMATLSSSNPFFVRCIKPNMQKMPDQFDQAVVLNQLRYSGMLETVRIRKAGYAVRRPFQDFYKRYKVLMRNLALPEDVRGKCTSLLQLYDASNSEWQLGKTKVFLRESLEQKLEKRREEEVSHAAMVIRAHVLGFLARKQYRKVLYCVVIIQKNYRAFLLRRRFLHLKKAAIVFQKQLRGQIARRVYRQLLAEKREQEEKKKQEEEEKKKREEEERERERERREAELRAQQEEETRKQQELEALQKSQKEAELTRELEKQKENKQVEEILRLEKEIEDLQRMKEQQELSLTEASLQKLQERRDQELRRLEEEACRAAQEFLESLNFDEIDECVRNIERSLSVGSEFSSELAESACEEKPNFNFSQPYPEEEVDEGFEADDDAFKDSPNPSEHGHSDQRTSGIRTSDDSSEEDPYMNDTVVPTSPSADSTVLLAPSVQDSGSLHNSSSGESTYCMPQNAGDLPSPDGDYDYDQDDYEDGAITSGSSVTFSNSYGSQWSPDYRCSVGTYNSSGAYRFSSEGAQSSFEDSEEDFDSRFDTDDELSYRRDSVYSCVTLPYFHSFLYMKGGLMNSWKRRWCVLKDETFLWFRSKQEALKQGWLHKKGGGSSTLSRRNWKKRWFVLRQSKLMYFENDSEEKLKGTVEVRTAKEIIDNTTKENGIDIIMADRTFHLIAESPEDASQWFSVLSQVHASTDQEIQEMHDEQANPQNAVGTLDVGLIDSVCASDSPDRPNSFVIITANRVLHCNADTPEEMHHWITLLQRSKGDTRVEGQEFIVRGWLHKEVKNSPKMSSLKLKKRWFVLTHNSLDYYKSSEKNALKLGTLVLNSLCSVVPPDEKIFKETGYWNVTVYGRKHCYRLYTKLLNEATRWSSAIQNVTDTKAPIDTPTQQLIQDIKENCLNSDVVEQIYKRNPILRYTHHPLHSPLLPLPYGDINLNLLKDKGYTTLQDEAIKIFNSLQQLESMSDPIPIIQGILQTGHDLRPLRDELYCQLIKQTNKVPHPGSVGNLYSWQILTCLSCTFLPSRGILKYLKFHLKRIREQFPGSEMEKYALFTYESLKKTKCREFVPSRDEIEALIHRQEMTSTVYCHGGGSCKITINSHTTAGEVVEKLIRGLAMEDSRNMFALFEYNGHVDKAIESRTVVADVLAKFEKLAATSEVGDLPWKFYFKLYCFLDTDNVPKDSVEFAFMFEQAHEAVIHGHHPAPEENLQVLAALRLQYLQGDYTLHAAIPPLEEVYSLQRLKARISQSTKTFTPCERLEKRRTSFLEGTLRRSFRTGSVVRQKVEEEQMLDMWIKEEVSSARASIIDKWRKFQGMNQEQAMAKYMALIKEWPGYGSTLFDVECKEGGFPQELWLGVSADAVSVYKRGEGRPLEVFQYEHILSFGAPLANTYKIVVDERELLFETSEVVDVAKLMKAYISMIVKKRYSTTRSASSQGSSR
UniProt Q9NW38: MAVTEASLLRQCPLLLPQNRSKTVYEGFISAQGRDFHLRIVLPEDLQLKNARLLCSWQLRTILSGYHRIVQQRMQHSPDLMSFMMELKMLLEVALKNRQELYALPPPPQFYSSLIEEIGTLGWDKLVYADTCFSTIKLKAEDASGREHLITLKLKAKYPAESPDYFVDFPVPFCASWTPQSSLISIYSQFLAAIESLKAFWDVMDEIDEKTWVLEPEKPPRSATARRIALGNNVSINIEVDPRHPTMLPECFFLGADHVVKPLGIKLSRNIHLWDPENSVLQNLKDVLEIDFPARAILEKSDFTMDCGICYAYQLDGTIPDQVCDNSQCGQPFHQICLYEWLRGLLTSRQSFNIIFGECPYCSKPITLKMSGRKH
UniProt Q9NWA0: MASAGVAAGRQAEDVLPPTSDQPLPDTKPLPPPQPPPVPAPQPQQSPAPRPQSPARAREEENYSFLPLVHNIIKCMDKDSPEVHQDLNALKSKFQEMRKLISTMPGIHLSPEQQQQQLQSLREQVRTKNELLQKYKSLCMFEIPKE
UniProt Q9NS73: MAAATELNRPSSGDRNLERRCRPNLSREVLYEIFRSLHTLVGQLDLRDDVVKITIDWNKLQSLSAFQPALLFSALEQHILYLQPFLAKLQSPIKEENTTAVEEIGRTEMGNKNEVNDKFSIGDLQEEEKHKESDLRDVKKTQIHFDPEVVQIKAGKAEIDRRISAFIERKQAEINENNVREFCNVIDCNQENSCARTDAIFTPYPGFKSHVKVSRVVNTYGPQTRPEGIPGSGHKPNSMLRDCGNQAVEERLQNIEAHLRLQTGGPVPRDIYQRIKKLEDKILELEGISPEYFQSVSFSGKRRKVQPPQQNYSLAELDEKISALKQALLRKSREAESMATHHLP
UniProt Q9NRG0: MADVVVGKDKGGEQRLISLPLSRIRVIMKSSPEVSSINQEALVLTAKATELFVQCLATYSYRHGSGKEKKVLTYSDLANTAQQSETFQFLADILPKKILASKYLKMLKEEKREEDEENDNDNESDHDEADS
UniProt Q9HD34: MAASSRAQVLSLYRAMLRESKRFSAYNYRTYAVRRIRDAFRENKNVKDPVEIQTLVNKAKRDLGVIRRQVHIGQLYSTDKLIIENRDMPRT

Each target was assayed with Cc1nc(Nc2ncc(C(=O)Nc3c(C)cccc3Cl)s2)cc(N2CCN(CCO)CC2)n1 [dasatinib] (assay: log2 fold change of tryptic peptide abundance, ligand vs vehicle (limited proteolysis) (log2 ratio); higher = more trypsin-susceptible (destabilized)). Settings: ligand concentration: 5 uM; sample: K562 cleared lysate.
“CYLD (peptide sequence: ATGSTSDPGNR, peptide start residue: 339) (UniProt Q9NQC7)” gave a log2 fold change of -0.129.
With “EXOSC5 (peptide sequence: IGLPGVAEK, peptide start residue: 84) (UniProt Q9NQT4)” the log2 fold change was 0.216.
For “RANGRF (peptide sequence: AVHVESVQPLSLENLALR, peptide start residue: 79) (UniProt Q9HD47)”, the log2 fold change was 0.127.
Target “FGFR1OP2 (peptide sequence: LRDHDDAAESLIEQTTALNK, peptide start residue: 19) (UniProt Q9NVK5)” has a log2 fold change of 0.485.
With “RBM12 (peptide sequence: VDAVHLLK, peptide start residue: 329) (UniProt Q9NTZ6)” the log2 fold change was -0.319.
With “KMT5A (peptide sequence: TDGENVFTGQSK, peptide start residue: 83) (UniProt Q9NQR1)” the log2 fold change was 0.205.
With “ZNF277 (peptide sequence: LREILEQQQQER, peptide start residue: 155) (UniProt Q9NRM2)” the log2 fold change was -0.267.
“MRPL17 (peptide sequence: QSQEASNHSSHTAQTPGI, peptide start residue: 158) (UniProt Q9NRX2)” showed a log2 fold change of 0.0466.
With “DCP1A (peptide sequence: HLTVEELFGTSLPK, peptide start residue: 216) (UniProt Q9NPI6)” the log2 fold change was 0.0784.
Target “CHMP1A (peptide sequence: VYAENAIR, peptide start residue: 47) (UniProt Q9HD42)” has a log2 fold change of 0.0605.
With “EPB41L5 (peptide sequence: AQVEAVHK, peptide start residue: 569) (UniProt Q9HCM4)” the log2 fold change was 0.276.
In the case of “MRPS18A (peptide sequence: MPVGSPLLR, peptide start residue: 174) (UniProt Q9NVS2)”, the log2 fold change is reported as 0.0753.
“MYO10 (peptide sequence: EEEERER, peptide start residue: 200) (UniProt Q9HD67)” was tested, and the log2 fold change was -0.0284.
“ANLN (peptide sequence: FKETERPSIK, peptide start residue: 681) (UniProt Q9NQW6)” gave a log2 fold change of -0.825.
Work on “ZBTB40 (peptide sequence: DVSAPSSETFR, peptide start residue: 128) (UniProt Q9NUA8)” yielded a log2 fold change of 0.348.
“UniProt Q9NRW1 (peptide sequence: TMYLEDR, peptide start residue: 54)” was tested, and the log2 fold change was 0.0207.
In the case of “FANCL (peptide sequence: TILSGYHR, peptide start residue: 61) (UniProt Q9NW38)”, the log2 fold change is reported as -0.532.
In the case of “MED9 (peptide sequence: SKFQEMR, peptide start residue: 92) (UniProt Q9NWA0)”, the log2 fold change is reported as 0.103.
“NLE1 (peptide sequence: IVASASFDK, peptide start residue: 386) (UniProt Q9NVX2)” was tested, and the log2 fold change was -0.255.
In the case of “THG1L (peptide sequence: VVVYPSNQTLK, peptide start residue: 160) (UniProt Q9NWX6)”, the log2 fold change is reported as 0.398.
For “SARS2 (peptide sequence: ELVHLYPR, peptide start residue: 148) (UniProt Q9NP81)”, the log2 fold change was 0.161.
Work on “MBIP (peptide sequence: EAESMATHHLP, peptide start residue: 334) (UniProt Q9NS73)” yielded a log2 fold change of 0.388.
“NDFIP2 (peptide sequence: AAAMAAAAAETSQR, peptide start residue: 194) (UniProt Q9NV92)” was tested, and the log2 fold change was 0.497.
For “RBM28 (peptide sequence: GQPEPAKDQQQK, peptide start residue: 611) (UniProt Q9NW13)”, the log2 fold change was 0.133.
For “CHRAC1 (peptide sequence: MLKEEKR, peptide start residue: 106) (UniProt Q9NRG0)”, the log2 fold change was 0.148.
In the case of “MBNL1 (peptide sequence: AVSVTPIRDTK, peptide start residue: 2) (UniProt Q9NR56)”, the log2 fold change is reported as -0.0655.
“LYRM4 (peptide sequence: QVHIGQLYSTDKLIIENR, peptide start residue: 69) (UniProt Q9HD34)” showed a log2 fold change of 0.107.
